PubChem BioAssay AID1508597, Cure First – 2020
Shown is an unselected part of the about 2,100 reagents, in one setting of the screen. 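Calls flag viability under 80% in either arm, not effects specific to rucaparib; the reference for percent is not stated.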 Entries without a mark were called inactive. Some reagents were tested in more than one well and are listed for each. Not given: the 100% reference.

Screen: 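Knock-downs altering ovarian cancer cell survival with or without PARP inhibitor rucaparib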 (primary screen)
Cells: human ovarian carcinoma lines grown from tumours: OCI-P5x (papillary serous) and OCI-C5x (clear cell)
Reagent: siRNA pool against human genes, 1.25 pmol siRNA per well
Timing: 72 h or 96 h, depending on the cell culture
Treatment: rucaparib 20 µM (about IC30) or vehicle, present until read-out
Rucaparib or vehicle: Vehicle
Cell line: OCI-C5x (clear cell)
Measurement: 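ATP luminescence measured at 72 or 96 h according to the culture, then normalised and expressed as percent viability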
Reading the numbers: viability, normalised: higher = more viable cells remaining
Call rule: 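a well counts as a hit if its normalised viability is under 80 percent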
Calls: active = viability under 80%; inactive = viability 80% or more

Gene	technical replicate	viability, normalised (%)
HIRA (histone cell cycle regulator)	1	61.8 (active)
HIRA (histone cell cycle regulator)	2	81.9
HIRA (histone cell cycle regulator)	3	89.4
TRDMT1 (tRNA aspartic acid methyltransferase 1)	1	56.7 (active)
TRDMT1 (tRNA aspartic acid methyltransferase 1)	2	54.1 (active)
TRDMT1 (tRNA aspartic acid methyltransferase 1)	3	61.5 (active)
LPA (lipoprotein(a))	1	61.4 (active)
LPA (lipoprotein(a))	2	58.4 (active)
LPA (lipoprotein(a))	3	58.4 (active)
METTL8 (methyltransferase 8, tRNA N3-cytidine)	1	38 (active)
METTL8 (methyltransferase 8, tRNA N3-cytidine)	2	39.1 (active)
METTL8 (methyltransferase 8, tRNA N3-cytidine)	3	38.4 (active)
ZC3HAV1 (zinc finger CCCH-type containing, antiviral 1)	1	56.6 (active)
ZC3HAV1 (zinc finger CCCH-type containing, antiviral 1)	2	70.6 (active)
ZC3HAV1 (zinc finger CCCH-type containing, antiviral 1)	3	70.4 (active)
RNF8 (ring finger protein 8)	1	80.8
RNF8 (ring finger protein 8)	1	33.3 (active)
RNF8 (ring finger protein 8)	2	41.1 (active)
RNF8 (ring finger protein 8)	2	31.2 (active)
RNF8 (ring finger protein 8)	3	39 (active)
RNF8 (ring finger protein 8)	3	44.4 (active)
DLG3 (discs large MAGUK scaffold protein 3)	1	67 (active)
DLG3 (discs large MAGUK scaffold protein 3)	2	51.7 (active)
DLG3 (discs large MAGUK scaffold protein 3)	3	51.9 (active)

Sorted by “viability, normalised (%)” (descending): some entries from above.
Gene	technical replicate	viability, normalised (%)
RNF8 (ring finger protein 8)	1	80.8
ZC3HAV1 (zinc finger CCCH-type containing, antiviral 1)	3	70.4 (active)
RNF8 (ring finger protein 8)	1	33.3 (active)
